## Library screen at single concentrations

Chains of the proteins cited; added tags and fusions are not shown. Residues count along the entry.
UniProt P9WPC5, whole entry: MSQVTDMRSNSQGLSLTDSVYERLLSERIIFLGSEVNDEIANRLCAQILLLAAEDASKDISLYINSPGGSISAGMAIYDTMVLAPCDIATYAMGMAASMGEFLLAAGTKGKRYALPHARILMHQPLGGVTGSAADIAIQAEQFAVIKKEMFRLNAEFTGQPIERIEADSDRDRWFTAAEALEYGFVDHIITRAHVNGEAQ
UniProt P9WPC3, whole entry partner: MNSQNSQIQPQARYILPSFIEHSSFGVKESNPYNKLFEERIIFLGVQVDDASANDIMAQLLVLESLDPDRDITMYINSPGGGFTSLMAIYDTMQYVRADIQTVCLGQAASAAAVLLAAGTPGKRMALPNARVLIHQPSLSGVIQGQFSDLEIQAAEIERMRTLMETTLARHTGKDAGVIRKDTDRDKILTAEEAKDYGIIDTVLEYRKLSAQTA
UniProt P9WNZ1, whole entry: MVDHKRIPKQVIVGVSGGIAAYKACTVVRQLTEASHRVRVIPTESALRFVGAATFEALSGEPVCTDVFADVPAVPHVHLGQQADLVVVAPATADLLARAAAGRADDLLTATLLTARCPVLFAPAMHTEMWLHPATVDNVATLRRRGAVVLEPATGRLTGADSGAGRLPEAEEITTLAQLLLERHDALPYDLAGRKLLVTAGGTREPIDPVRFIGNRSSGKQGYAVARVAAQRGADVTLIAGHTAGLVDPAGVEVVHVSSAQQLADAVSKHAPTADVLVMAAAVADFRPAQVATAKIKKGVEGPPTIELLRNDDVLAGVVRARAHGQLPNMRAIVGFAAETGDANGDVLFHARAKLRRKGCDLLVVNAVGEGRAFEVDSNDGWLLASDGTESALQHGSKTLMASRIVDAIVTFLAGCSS
UniProt A4I591, 1-473: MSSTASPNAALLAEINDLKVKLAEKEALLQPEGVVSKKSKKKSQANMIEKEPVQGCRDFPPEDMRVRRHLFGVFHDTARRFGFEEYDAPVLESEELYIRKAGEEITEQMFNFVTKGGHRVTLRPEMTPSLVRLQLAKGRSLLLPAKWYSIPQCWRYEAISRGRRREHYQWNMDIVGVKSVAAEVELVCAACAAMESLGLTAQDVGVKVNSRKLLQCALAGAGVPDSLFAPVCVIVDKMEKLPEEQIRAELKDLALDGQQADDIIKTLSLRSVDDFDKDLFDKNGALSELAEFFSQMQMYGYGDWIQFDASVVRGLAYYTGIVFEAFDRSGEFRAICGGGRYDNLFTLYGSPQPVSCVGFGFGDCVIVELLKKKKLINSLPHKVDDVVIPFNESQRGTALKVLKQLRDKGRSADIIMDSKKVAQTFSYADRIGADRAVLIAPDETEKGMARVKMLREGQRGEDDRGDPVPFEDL

Data taken from ChEMBL document CHEMBL3988442, “University of Dundee, Small-Polar-MMV Screening Library” (2021).

Values are the deposited “Percent Effect”, in %. The record does not define 0% and 100%; most values in the screen are far below 50% and negative numbers occur (in some assays of this library far below -100). Compounds were drawn at random from those tested, without regard to their results. Two or more numbers in one place are separate tests of the same structure; such repeats can differ widely. A dash means the value is not listed here; it may have been measured.

ClpP1P2: 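Protease assay of ClpP1P2, read by the AMC dye that it sets free. Target: ClpP1P2, Mycobacterium tuberculosis (UniProt P9WPC5 and UniProt P9WPC3). Concentration: 50 µM. Direction is inferred from only a few compounds that gave an IC50; most scored high, so higher reads as stronger inhibition. Most other retested compounds had strongly negative values. Size under these conditions: about 69,000 compounds, about 10 of them at 50% or above in at least one test.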
CoaBC: 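Enzyme assay of CoaBC with a phosphate dye (Biomol Green) read at 650 nm. Target: Coenzyme A biosynthesis protein CoaBC, Mycobacterium tuberculosis (UniProt P9WNZ1). Compounds at 30 µM. Higher reads as stronger inhibition, judged from the few compounds that gave an IC50. Most strong results did not repeat in a second test. About 67,000 compounds were tested under these conditions; 0.06% (about 40) showed 50% or more at least once.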
Leishmania in macrophages: 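Cell assay of Leishmania donovani living inside macrophages; the read-out is not stated. Concentration: 30 µM. The record gives no direction; compounds that gave an IC50 in retests scored well above the rest, so higher reads as stronger inhibition. Size under these conditions: about 69,000 compounds, about 1,000 of them at 50% or above in at least one test.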
LiHisRS: 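Histidine-tRNA ligase, Leishmania infantum (UniProt A4I591). Enzyme assay of histidyl-tRNA synthetase; the read-out is not stated. Compounds at 30 µM. Direction is inferred from retests: higher values go with stronger inhibition. The assay is labelled LdHisRS but filed under L. infantum. About 69,000 compounds were tested under these conditions; 0.6% (about 410) showed 50% or more at least once.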

| # | structure | ClpP1P2 | CoaBC | Leishmania in macrophages | LiHisRS |
|---|---|---|---|---|---|
| 1 | `Cc1nc[nH]c1C(=O)NCc1cccnc1N(C)C1CCCCC1` | 5.433 | 1.141 | 6.491 | 21.52 |
| 2 | `CN1CCN(Cc2c[nH]cn2)CC12CCC(=O)N(CC1CC1)CC2` (centres unmarked) | -8.525 | 1.091 | 22.54 | 11.29 |
| 3 | `CC(C)N(C)Cc1nnn2c1CN(Cc1cccnc1)CCC2` | -9.112 | 2.177 | - | 4.938 |
| 4 | `OC[C@@H]1CCCN1Cc1cn(C2CCN(C3CCCC3)CC2)nn1` | -10.79 | 3.317 | 24.9 | 24.81 |
| 5 | `CNC(=O)c1cc2c(nc1NCC1CC1)CCN(c1ncccn1)CC2` | -36.52 | 5.013 | 0.7999 | 0 |
| 6 | `[H][C@@]12CCN(Cc3cc(C)on3)C[C@@]1([H])O[C@@H](c1nc(C)cs1)C2` | - | - | 49.62 | - |
| 7 | `[H][C@@]12CNC(=O)N1CCN(C1CCOCC1)C2` | - | - | 19.69 | - |
| 8 | `Cc1ccsc1CNC(=O)c1ccc2c(c1)CCC(=O)N2` | 5.616 | -3.571 | -19.85 | -7.292 |
| 9 | `Cc1cc(-c2noc(C3CCS(=O)(=O)C3)n2)ccc1F` (centres unmarked) | -2.277 | 3.566 | 12.09 | 12.7 |
| 10 | `C1CN(c2nc(C3CC3)ns2)CCS1` | -11.97 | -0.2445 | -52.69 | 17.74 |
| 11 | `Cc1cnc(N2CC3(CCN(Cc4cccnc4)C3)C2)nc1.O=C(O)C(F)(F)F.O=C(O)C(F)(F)F` | - | - | 5.815 | - |
| 12 | `CCCn1ncc(CN2CCCC(C(=O)c3ccc(SC)cc3)C2)c1C` (centres unmarked) | -25.88 | 5.839 | 21.44 | 15.83 |
| 13 | `COCCS(=O)(=O)N(Cc1cscn1)c1ccccc1` | -6.921 | -3.213 | -20.26 | 10.45 |
| 14 | `CS(=O)(=O)N1CCO[C@@H]2CN(Cc3ccc(F)cc3)CC[C@@H]2C1` | 0.74 | 2.326 | - | 5.263 |
| 15 | `O=C(NCc1cnc2n1CCN(Cc1cccs1)C2)c1ccno1` | 18.45 | -0.2463 | - | 34 |
| 16 | `CCc1cnc(NCc2ccccc2Cn2cccn2)nc1` | -8.793 | 5.495 | -4.733 | 8.571 |
| 17 | `CCc1nc(N2CCN(c3ncccc3C#N)CC2)c2cnn(C)c2n1` | -12.75 | 3.713 | -15.43 | 16 |
| 18 | `O=C(NCCn1ccnc1)c1ccn(-c2ccccc2F)n1` | 11.1 | -1.173 | -2.948 | 7.895 |
| 19 | `O=C(O)C(F)(F)F.O=C(c1cccs1)N1CCCC2(COCCN(c3cccnc3)C2)C1` (centres unmarked) | - | - | 16.06 | - |
| 20 | `[H][C@]12CC[C@]([H])(CN(S(C)(=O)=O)C1)N(CC(=O)Nc1ccn(C)n1)C2` | - | - | 17.62 | - |
| 21 | `COc1ccccc1NCc1cscn1` | -6.165 | 3.64 | - | 13.33 |
| 22 | `COc1nccnc1N1CCN(Cc2cccc(F)c2)C(=O)C1` | -5.181 | -6.036 | -32.43 | -1.37 |
| 23 | `CCOc1ccccc1C(=O)N1CCn2c(nnc2C(F)(F)F)C1` | -7.618 | 1.582 | 35.54 | 9.091 |
| 24 | `O=C(C1CCCCC1)N1CCC2(CCCN2CC2CC2)CC1.O=C(O)C(F)(F)F` | - | - | 38.23 | - |
| 25 | `CC(C)c1nccc(C2CC(=O)Nc3n[nH]c(C4CCC4)c32)n1` (centres unmarked) | -7.982 | 9.091 | -7.852 | 20.41 |
| 26 | `[H][C@@]12CN(C)C[C@]1(C(=O)N(C)C)CCC21CCN(C(=O)NC(C)C)CC1` | - | - | 23.13 | - |
| 27 | `N#Cc1c(CN2CCCC2Cn2cccn2)cn2ccccc12` (centres unmarked) | -26.64 | 2.301 | -23.33 | 27.08 |
| 28 | `Cc1nnc2n1CCN(C(=O)c1cc3cc(F)ccc3[nH]1)C2` | -35.32 | 2.194 | -11.61 | 6.957 |
| 29 | `Cc1ccc(S(=O)(=O)N(CC(N)=O)CC(C)C)cc1C` | -1.58 | 1.556 | 5.915 | 6.306 |
| 30 | `CCn1cc(NC(=O)c2c(C)nn(C)c2C)c(C(N)=O)n1` | 1.978 | 12.91 | -3.227 | 21.51 |
| 31 | `CC(C)C1CC(=O)Nc2c1cnn2Cc1ccco1` (centres unmarked) | -5.553 | 4.81 | 2.59 and 23.65 | 18.42 |
| 32 | `CCOc1cccc(C2CC(=O)NCc3nc(N(C)C)sc32)c1` (centres unmarked) | -3.508 | 12.47 | -51.41 | 21.92 |
| 33 | `COc1c(F)cc(-c2cccc3c2OC(CN)C3)cc1F` (centres unmarked) | -8.098 | -0.2433 | 78.5 | -4.444 |
| 34 | `O=C(CCc1ccc(Cl)cc1)N[C@@H]1CC[C@@H](O)[C@@H]1O` | -17.01 | -28.33 | -37.63 | 8.392 |
| 35 | `CC(=O)N1CCC2(CCCN(S(=O)(=O)c3ccccc3)C2)C1` (centres unmarked) | 2.039 | -0.6435 | -7.096 | 0 |
| 36 | `c1ccc2c(c1)CN(c1ncnc3sc4c(c13)CCNC4)CCO2` | -14.72 | -15.02 | 19.36 | 15.05 |

4 of the entries, repeated:

structure,ClpP1P2,CoaBC,Leishmania in macrophages,LiHisRS
CC(C)c1nccc(C2CC(=O)Nc3n[nH]c(C4CCC4)c32)n1 (centres unmarked),-7.982,9.091,-7.852,20.41
OC[C@@H]1CCCN1Cc1cn(C2CCN(C3CCCC3)CC2)nn1,-10.79,3.317,24.9,24.81
CNC(=O)c1cc2c(nc1NCC1CC1)CCN(c1ncccn1)CC2,-36.52,5.013,0.7999,0
O=C(O)C(F)(F)F.O=C(c1cccs1)N1CCCC2(COCCN(c3cccnc3)C2)C1 (centres unmarked),-,-,16.06,-